The supplement of paper PMC8728848
The list shows a part of the results.

Legend:
Experiment in all cases: glycan array binding signal (z-score within array); higher = stronger binding
Conditions in all cases: glycan notation: IUPAC condensed, linker removed
[1] = biological target: GlcNAc(b1-2)[GlcNAc(b1-4)]Man(a1-3)[GlcNAc(b1-4)][GlcNAc(b1-2)[GlcNAc(b1-6)]Man(a1-6)]Man(b1-4)GlcNAc(b1-4)[Fuc(a1-6)]GlcNAc
Summary of the method: (§1)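 Negative Z-scores can be read as non-binding. The Z-score is calculated within each array and then averaged across arrays of one protein sequence at different concentrations or buffers and across linkers. Arrays, 3228 in all, were curated from the Consortium for Functional Glycomics database and kept only where the protein sequence was available.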

[2] = biological target: GlcNAc(b1-2)[GlcNAc(b1-6)]Man(a1-6)[GlcNAc(b1-2)Man(a1-3)]Man(b1-4)GlcNAc(b1-4)GlcNAc
Summary of the method: as §1

[3] = biological target: GlcNAc(b1-2)[GlcNAc(b1-6)]Man(a1-6)[GlcNAc(b1-2)Man(a1-3)]Man(b1-4)GlcNAc(b1-4)[Fuc(a1-6)]GlcNAc
Summary of the method: as §1

[4] = biological target: GlcNAc(b1-2)[GlcNAc(b1-6)]Man(a1-6)[GlcNAc(b1-4)][GlcNAc(b1-2)Man(a1-3)]Man(b1-4)GlcNAc(b1-4)GlcNAc
Summary of the method: as §1

GlcNAc(b1-3)Fuc = biological target: GlcNAc(b1-3)Fuc
Summary of the method: as §1

GlcNAc(b1-3)Gal = biological target: GlcNAc(b1-3)Gal
Summary of the method: as §1

[5] = biological target: GlcNAc(b1-3)Gal(b1-3)GalNAc
Summary of the method: as §1

GlcNAc(b1-3)Gal(b1-4)Glc = biological target: GlcNAc(b1-3)Gal(b1-4)Glc
Summary of the method: as §1

[6] = biological target: GlcNAc(b1-3)Gal(b1-4)GlcNAc
Summary of the method: as §1

[7] = biological target: GlcNAc(b1-3)Gal(b1-4)GlcNAc(b1-2)Man(a1-3)[GlcNAc(b1-3)Gal(b1-4)GlcNAc(b1-2)Man(a1-6)]Man(b1-4)GlcNAc(b1-4)GlcNAc
Summary of the method: as §1

[8] = biological target: GlcNAc(b1-3)Gal(b1-4)GlcNAc(b1-2)Man(a1-3)[GlcNAc(b1-3)Gal(b1-4)GlcNAc(b1-2)Man(a1-6)]Man(b1-4)GlcNAc(b1-4)[Fuc(a1-6)]GlcNAc
Summary of the method: as §1

[9] = biological target: GlcNAc(b1-3)Gal(b1-4)GlcNAc(b1-2)[GlcNAc(b1-3)Gal(b1-4)GlcNAc(b1-6)]Man(a1-6)[GlcNAc(b1-3)Gal(b1-4)GlcNAc(b1-2)Man(a1-3)]Man(b1-4)GlcNAc(b1-4)GlcNAc
Summary of the method: as §1

[10] = biological target: GlcNAc(b1-3)Gal(b1-4)GlcNAc(b1-3)Gal(b1-4)GlcNAc
Summary of the method: as §1

[11] = biological target: GlcNAc(b1-3)Gal(b1-4)GlcNAc(b1-3)Gal(b1-4)GlcNAc(b1-2)Man(a1-3)[GlcNAc(b1-3)Gal(b1-4)GlcNAc(b1-3)Gal(b1-4)GlcNAc(b1-2)Man(a1-6)]Man(b1-4)GlcNAc(b1-4)GlcNAc
Summary of the method: as §1

[12] = biological target: GlcNAc(b1-3)Gal(b1-4)GlcNAc(b1-3)Gal(b1-4)GlcNAc(b1-2)Man(a1-3)[GlcNAc(b1-3)Gal(b1-4)GlcNAc(b1-3)Gal(b1-4)GlcNAc(b1-2)Man(a1-6)]Man(b1-4)GlcNAc(b1-4)[Fuc(a1-6)]GlcNAc
Summary of the method: as §1

[13] = biological target: GlcNAc(b1-3)Gal(b1-4)GlcNAc(b1-3)Gal(b1-4)GlcNAc(b1-2)[GlcNAc(b1-3)Gal(b1-4)GlcNAc(b1-3)Gal(b1-4)GlcNAc(b1-6)]Man(a1-6)[GlcNAc(b1-3)Gal(b1-4)GlcNAc(b1-3)Gal(b1-4)GlcNAc(b1-2)Man(a1-3)]Man(b1-4)GlcNAc(b1-4)[Fuc(a1-6)]GlcNAc
Summary of the method: as §1

[14] = biological target: GlcNAc(b1-3)Gal(b1-4)GlcNAc(b1-3)Gal(b1-4)GlcNAc(b1-3)Gal(b1-4)GlcNAc(b1-2)Man(a1-3)[GlcNAc(b1-3)Gal(b1-4)GlcNAc(b1-3)Gal(b1-4)GlcNAc(b1-3)Gal(b1-4)GlcNAc(b1-2)Man(a1-6)]Man(b1-4)GlcNAc(b1-4)GlcNAc
Summary of the method: as §1

[15] = biological target: GlcNAc(b1-3)Gal(b1-4)GlcNAc(b1-3)Gal(b1-4)GlcNAc(b1-3)Gal(b1-4)GlcNAc(b1-2)Man(a1-3)[GlcNAc(b1-3)Gal(b1-4)GlcNAc(b1-3)Gal(b1-4)GlcNAc(b1-3)Gal(b1-4)GlcNAc(b1-2)Man(a1-6)]Man(b1-4)GlcNAc(b1-4)[Fuc(a1-6)]GlcNAc
Summary of the method: as §1

[16] = biological target: GlcNAc(b1-3)Gal(b1-4)GlcNAc(b1-3)Gal(b1-4)GlcNAc(b1-3)Gal(b1-4)GlcNAc(b1-2)[GlcNAc(b1-3)Gal(b1-4)GlcNAc(b1-3)Gal(b1-4)GlcNAc(b1-3)Gal(b1-4)GlcNAc(b1-6)]Man(a1-6)[GlcNAc(b1-3)Gal(b1-4)GlcNAc(b1-3)Gal(b1-4)GlcNAc(b1-3)Gal(b1-4)GlcNAc(b1-2)Man(a1-3)]Man(b1-4)GlcNAc(b1-4)[Fuc(a1-6)]GlcNAc
Summary of the method: as §1

[17] = biological target: GlcNAc(b1-3)Gal(b1-4)GlcNAc(b1-3)Gal(b1-4)GlcNAc(b1-3)Gal(b1-4)GlcNAc(b1-3)Gal(b1-4)GlcNAc(b1-2)Man(a1-3)[GlcNAc(b1-3)Gal(b1-4)GlcNAc(b1-3)Gal(b1-4)GlcNAc(b1-3)Gal(b1-4)GlcNAc(b1-3)Gal(b1-4)GlcNAc(b1-2)Man(a1-6)]Man(b1-4)GlcNAc(b1-4)GlcNAc
Summary of the method: as §1

[18] = biological target: GlcNAc(b1-3)Gal(b1-4)GlcNAc(b1-3)Gal(b1-4)GlcNAc(b1-3)Gal(b1-4)GlcNAc(b1-3)Gal(b1-4)GlcNAc(b1-2)Man(a1-3)[GlcNAc(b1-3)Gal(b1-4)GlcNAc(b1-3)Gal(b1-4)GlcNAc(b1-3)Gal(b1-4)GlcNAc(b1-3)Gal(b1-4)GlcNAc(b1-2)Man(a1-6)]Man(b1-4)GlcNAc(b1-4)[Fuc(a1-6)]GlcNAc
Summary of the method: as §1

[19] = biological target: GlcNAc(b1-3)Gal(b1-4)GlcNAc(b1-3)Gal(b1-4)GlcNAc(b1-3)Gal(b1-4)GlcNAc(b1-3)Gal(b1-4)GlcNAc(b1-2)[GlcNAc(b1-3)Gal(b1-4)GlcNAc(b1-3)Gal(b1-4)GlcNAc(b1-3)Gal(b1-4)GlcNAc(b1-3)Gal(b1-4)GlcNAc(b1-6)]Man(a1-6)[GlcNAc(b1-3)Gal(b1-4)GlcNAc(b1-3)Gal(b1-4)GlcNAc(b1-3)Gal(b1-4)GlcNAc(b1-3)Gal(b1-4)GlcNAc(b1-2)Man(a1-3)]Man(b1-4)GlcNAc(b1-4)[Fuc(a1-6)]GlcNAc
Summary of the method: as §1

[20] = biological target: GlcNAc(b1-3)Gal(b1-4)GlcNAc(b1-3)Gal(b1-4)GlcNAc(b1-3)GalNAc
Summary of the method: as §1

[21] = biological target: GlcNAc(b1-3)Gal(b1-4)GlcNAc(b1-3)GalNAc
Summary of the method: as §1

[22] = biological target: GlcNAc(b1-3)Gal(b1-4)GlcNAc(b1-3)[GlcNAc(b1-3)Gal(b1-4)GlcNAc(b1-3)]GalNAc
Summary of the method: as §1

[23] = biological target: GlcNAc(b1-3)Gal(b1-4)GlcNAc(b1-6)[Gal(b1-3)]GalNAc
Summary of the method: as §1

[24] = biological target: GlcNAc(b1-3)Gal(b1-4)GlcNAc(b1-6)[GlcNAc(b1-3)Gal(b1-3)]GalNAc
Summary of the method: as §1

[25] = biological target: GlcNAc(b1-3)Gal(b1-4)GlcNAc(b1-6)[GlcNAc(b1-3)]Gal(b1-4)GlcNAc
Summary of the method: as §1

GlcNAc(b1-3)GalNAc = biological target: GlcNAc(b1-3)GalNAc
Summary of the method: as §1

GlcNAc(b1-3)Man = biological target: GlcNAc(b1-3)Man
Summary of the method: as §1

[26] = biological target: GlcNAc(b1-3)[GlcNAc(b1-4)][GlcNAc(b1-6)]GlcNAc
Summary of the method: as §1

[27] = biological target: GlcNAc(b1-3)[GlcNAc(b1-6)]Gal(b1-4)GlcNAc
Summary of the method: as §1

[28] = biological target: GlcNAc(b1-3)[GlcNAc(b1-6)]GalNAc
Summary of the method: as §1

[29] = biological target: GlcNAc(b1-4)Gal(b1-4)GlcNAc
Summary of the method: as §1

GlcNAc(b1-4)GlcNAc = biological target: GlcNAc(b1-4)GlcNAc
Summary of the method: as §1

[30] = biological target: GlcNAc(b1-4)GlcNAc(b1-4)GlcNAc
Summary of the method: as §1

[31] = biological target: GlcNAc(b1-4)GlcNAc(b1-4)GlcNAc(b1-4)GlcNAc(b1-4)GlcNAc
Summary of the method: as §1

[32] = biological target: GlcNAc(b1-4)GlcNAc(b1-4)GlcNAc(b1-4)GlcNAc(b1-4)GlcNAc(b1-4)GlcNAc
Summary of the method: as §1

B1: Epf (Streptococcus pyogenes) (protein)
chain: GDHGPEFNGVMVVKAAEAEELPDDLMNFKGTWEVSADGSSGRFFSKGATDSYVFHLIPAKDVKKPGWREHNEVKDSYIKIDKQSIAARYKTSTTAPYSVAFKVNTKSLIKDHDYKITFEQGQIASGITVDYRIGSAFNKTTDDSFKISDESKYASNVKIEGEEQGFKQREQGDKTISFRTLKEGPMSLVLLSKVEKKPQGDLDVEFKNLKIIDVTNPSQLDKGVAYVGNKNVQLTLKSDDGRTNFEGDEISLFNSRGELLQTVTVTKDQQNPISITLSEDQAKSLKNKEKLKVSIKQKQSKKTSKDFFFEVGIDPKVEAKQKEKLLELDKVKKQIEDSINGDAWLPEKPVDLQGDHGLSAWSHPQFEK
- glycan array binding signal (z-score) [1]: 0.798
- glycan array binding signal (z-score) [2]: -0.28
- glycan array binding signal (z-score) [3]: 0.331
- glycan array binding signal (z-score) [4]: 1.68
- glycan array binding signal (z-score) (GlcNAc(b1-3)Fuc): 0.217
- glycan array binding signal (z-score) (GlcNAc(b1-3)Gal): 0.072
- glycan array binding signal (z-score) [5]: -0.285
- glycan array binding signal (z-score) (GlcNAc(b1-3)Gal(b1-4)Glc): 0.469
- glycan array binding signal (z-score) [6]: 0.342
- glycan array binding signal (z-score) [7]: -0.562
- glycan array binding signal (z-score) [8]: -0.245
- glycan array binding signal (z-score) [9]: -0.254
- glycan array binding signal (z-score) [10]: 0.659
- glycan array binding signal (z-score) [11]: 1.22
- glycan array binding signal (z-score) [12]: 0.723
- glycan array binding signal (z-score) [13]: 0.082
- glycan array binding signal (z-score) [14]: -0.168
- glycan array binding signal (z-score) [15]: 2.18
- glycan array binding signal (z-score) [16]: 2.85
- glycan array binding signal (z-score) [17]: 0.234
- glycan array binding signal (z-score) [18]: -0.75
- glycan array binding signal (z-score) [19]: -0.117
- glycan array binding signal (z-score) [20]: -0.246
- glycan array binding signal (z-score) [21]: -0.778
- glycan array binding signal (z-score) [22]: 0.25
- glycan array binding signal (z-score) [23]: -0.831
- glycan array binding signal (z-score) [24]: 0.445
- glycan array binding signal (z-score) [25]: 0.29
- glycan array binding signal (z-score) (GlcNAc(b1-3)GalNAc): -0.705
- glycan array binding signal (z-score) (GlcNAc(b1-3)Man): 0.194
- glycan array binding signal (z-score) [26]: -0.367
- glycan array binding signal (z-score) [27]: 2.09
- glycan array binding signal (z-score) [28]: 0.066
- glycan array binding signal (z-score) [29]: -0.031
- glycan array binding signal (z-score) (GlcNAc(b1-4)GlcNAc): -1.32
- glycan array binding signal (z-score) [30]: -0.513
- glycan array binding signal (z-score) [31]: -0.915
- glycan array binding signal (z-score) [32]: -1.1
